# Values of other authors as cited in patent US20180289421A1, “SYSTEMS AND METHODS FOR TREATING NAIL FUNGUS” (Terimber Corporation, priority 2017, published 2018).
# At least one compound was matched to its structure with a doubt left.
# Tested on: onychomycosis
# Settings: systemic, compared with terbinafine
smiles,measurement,value
CCC(C)n1ncn(-c2ccc(N3CCN(c4ccc(OCC5COC(Cn6cncn6)(c6ccc(Cl)cc6Cl)O5)cc4)CC3)cc2)c1=O (centres unmarked) [Itraconazole],clinical clearing rate,much lower
same,mycologic clearing rate,much lower
